Assay results: paper PMC9102726
No constants are given. Whether binding was seen depends on the method and setting. Binding seen in cells or lysates may run through a third protein. Some binding calls cover weakened binding; strength is not graded here.

Amino acid sequences for entries named in this document (tags omitted).
UniProt P09429: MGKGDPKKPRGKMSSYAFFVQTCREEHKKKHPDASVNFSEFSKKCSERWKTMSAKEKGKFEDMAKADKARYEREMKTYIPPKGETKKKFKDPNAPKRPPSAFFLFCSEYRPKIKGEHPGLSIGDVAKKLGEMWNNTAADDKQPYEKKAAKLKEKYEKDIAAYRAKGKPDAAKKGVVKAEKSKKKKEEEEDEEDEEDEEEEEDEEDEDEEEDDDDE

What was measured:
[1] = target: Valosin-containing protein (VCP), endogenous (human (endogenous in Huh7, MHCC-LM3, 293T)) (UniProt P55072); experiment: co-IP; endogenous proteins in Huh7 and MHCC-LM3 lysates (RIPA buffer), specific antibody or same-species IgG overnight at 4 °C, protein A/G agarose; both directions
[2] = target: His-tagged full-length VCP (wild type) (UniProt P55072); experiment: co-IP; 293T cells transfected with His-tagged VCP or its deletion mutants; lysates immunoprecipitated with anti-His antibody; blot for His and HMGB1
[3] = target: GST-tagged VCP fusion protein (UniProt P55072); experiment: pull-down; purified GST-tagged proteins incubated with whole lysate of MHCC-LM3 cells at 4 °C overnight; bound proteins analysed by SDS-PAGE and blot; only the target purified
[4] = target: High-mobility group box 1 (HMGB1), endogenous (human (endogenous in MHCC-LM3, Huh7, 293T)) (UniProt P09429); experiment: co-IP; endogenous proteins in Huh7 and MHCC-LM3 lysates (RIPA buffer), specific antibody or same-species IgG overnight at 4 °C, protein A/G agarose; both directions
[5] = target: Flag-tagged HMGB1 (wild type) (UniProt P09429); experiment: co-IP; 293T cells transfected with Flag-tagged HMGB1 or its deletion mutants; lysates immunoprecipitated with anti-Flag antibody; blot for Flag and VCP

Row | binding [1] | binding [2] | binding [3] | binding [4] | binding [5] | Substance
1 | binds | binds | binds |  |  | High-mobility group box 1 (HMGB1), endogenous (from UniProt P09429 1-215)
2 |  |  |  | binds | binds | Valosin-containing protein (VCP), endogenous (from UniProt P55072 1-806)
